Measured values taken from PubChem BioAssay AID540336 (Broad Institute, 2011).
In all, about 330,000 compounds went through this assay and about 520 (0.16%) were called active.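 The calls were made as follows: active = inhibition of at least 50% in every replicate; inconclusive = best replicate reaches 50% inhibition but some replicates fall short; inactive = the rest.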 Inconclusive means that the source gave no clear call.

Protein sequences, listed by entry. Tags and fused reporters are not part of them.
UniProt Q5AAJ8, whole entry, looked up: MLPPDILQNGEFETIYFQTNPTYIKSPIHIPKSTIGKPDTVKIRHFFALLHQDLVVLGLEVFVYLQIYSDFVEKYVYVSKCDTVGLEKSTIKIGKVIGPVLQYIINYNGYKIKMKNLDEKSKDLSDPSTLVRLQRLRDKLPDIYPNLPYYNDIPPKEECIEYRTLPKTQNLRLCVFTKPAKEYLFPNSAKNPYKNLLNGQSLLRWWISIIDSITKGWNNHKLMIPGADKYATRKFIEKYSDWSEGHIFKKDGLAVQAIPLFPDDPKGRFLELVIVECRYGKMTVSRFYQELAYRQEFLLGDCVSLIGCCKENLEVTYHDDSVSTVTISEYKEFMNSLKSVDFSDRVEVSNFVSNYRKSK

The compounds below were run against Histone acetyltransferase RTT109 (Candida albicans (strain SC5314 / ATCC MYA-2876)) (UniProt Q5AAJ8) (assay: Rtt109-Vps75 histone acetyltransferase blockade – biochemical, ThioGlo CoA-SH fluorescence, plate reader, primary screen (AID 540336)). Conditions: purified Rtt109/Vps75, ThioGlo CoA-SH fluorescence, 4 h; at 34.9 µM; hits give high values.

Row | Compound | inhibition
1 | Cc1ccc(S(=O)(=O)Oc2ccc(/C=C3/C(=N)N4C(=NC3=O)SN=C4S(C)(=O)=O)cc2)cc1 | inconclusive: 37.4%
